Measurements taken from publication PMC5752520.
No constants are given. Whether binding was seen depends on the method and setting. For some assays here: Binding seen in cells or lysates may run through a third protein. Some results given as binding are weak or reduced against the parent protein; the word gives no strength. Where a sequence is shown, tags or fusion partners need not be part of it.

Protein sequences, listed by entry. Tags and fused reporters are not part of them.
UniProt P10275: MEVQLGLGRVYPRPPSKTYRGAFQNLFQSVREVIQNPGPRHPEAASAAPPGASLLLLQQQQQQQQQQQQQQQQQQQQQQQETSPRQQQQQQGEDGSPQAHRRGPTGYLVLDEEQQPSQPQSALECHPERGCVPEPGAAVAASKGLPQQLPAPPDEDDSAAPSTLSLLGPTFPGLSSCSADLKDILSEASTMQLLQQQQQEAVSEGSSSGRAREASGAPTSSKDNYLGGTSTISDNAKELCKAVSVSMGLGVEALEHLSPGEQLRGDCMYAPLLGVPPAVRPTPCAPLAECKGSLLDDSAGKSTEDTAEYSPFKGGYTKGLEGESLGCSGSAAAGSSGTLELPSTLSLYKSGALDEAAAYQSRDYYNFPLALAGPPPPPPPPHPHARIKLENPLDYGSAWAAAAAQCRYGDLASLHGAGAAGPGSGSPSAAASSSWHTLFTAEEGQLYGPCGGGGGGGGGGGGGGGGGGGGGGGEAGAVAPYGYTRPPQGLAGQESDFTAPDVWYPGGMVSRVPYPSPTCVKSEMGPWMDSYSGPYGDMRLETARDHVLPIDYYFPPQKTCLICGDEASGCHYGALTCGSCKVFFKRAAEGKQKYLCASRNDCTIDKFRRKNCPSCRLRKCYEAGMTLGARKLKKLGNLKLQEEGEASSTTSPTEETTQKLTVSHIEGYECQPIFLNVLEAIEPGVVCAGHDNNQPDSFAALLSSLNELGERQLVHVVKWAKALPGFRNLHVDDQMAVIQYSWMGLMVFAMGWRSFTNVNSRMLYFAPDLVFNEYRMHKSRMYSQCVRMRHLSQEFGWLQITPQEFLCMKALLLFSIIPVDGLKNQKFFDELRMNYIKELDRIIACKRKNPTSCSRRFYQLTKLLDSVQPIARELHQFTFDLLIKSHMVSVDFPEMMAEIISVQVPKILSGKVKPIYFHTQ

Legend:
[1] = molecular target: T1, FLAG-tagged ETS-1 (UniProt P14921); assay: co-IP; HepG2 cells transfected with FLAG-AR or FLAG-ETS1 (or FLAG empty vector); lysates immunoprecipitated with anti-FLAG monoclonal antibody, blotted with anti-ETS-1 or anti-AR; treated without or with 100 nM DHT
T1 sequence: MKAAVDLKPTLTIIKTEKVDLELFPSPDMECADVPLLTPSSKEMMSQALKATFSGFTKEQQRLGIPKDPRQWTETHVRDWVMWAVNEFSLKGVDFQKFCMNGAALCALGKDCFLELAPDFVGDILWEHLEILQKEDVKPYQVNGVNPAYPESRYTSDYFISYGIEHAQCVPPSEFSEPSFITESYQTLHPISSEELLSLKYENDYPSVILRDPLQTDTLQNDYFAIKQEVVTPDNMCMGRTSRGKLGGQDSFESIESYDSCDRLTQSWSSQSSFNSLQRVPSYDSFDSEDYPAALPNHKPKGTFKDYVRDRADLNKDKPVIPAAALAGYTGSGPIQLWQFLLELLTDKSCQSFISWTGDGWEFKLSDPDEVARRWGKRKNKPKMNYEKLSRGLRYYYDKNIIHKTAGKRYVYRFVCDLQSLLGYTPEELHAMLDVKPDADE

[2] = molecular target: T2, GST-ETS1 (UniProt P14921); assay: pull-down; GST-AR, GST-ETS1 or GST on glutathione-Sepharose beads incubated with purified FLAG-ETS1 or FLAG-AR at 4°C, in the presence or absence of 100 nM DHT; SDS-PAGE and western blotting; both purified
T2 sequence: T1 sequence

Substance | binding [1] | binding [2]
endogenous androgen receptor (AR) (from UniProt P10275 1-920) | binds | 
purified FLAG-labeled AR (from UniProt P10275 1-920) (receptor) |  | binds
